## Results of single-concentration screens

Source: ChEMBL document CHEMBL3988442, “University of Dundee, Small-Polar-MMV Screening Library” (2021).

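Whole-cell growth test on Mycobacterium tuberculosis, read after 4 days in a medium based on cholesterol and the lipid DPPC; the read-out is not stated. Concentration: 50 µM. The record gives no direction; compounds that gave an IC50 in retests scored well above the rest, so higher reads as more growth inhibition. Size under these conditions: about 69,000 compounds, about 370 of them at 50% or above in at least one test.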

Each number is a percent effect as filed.
How 0% and 100% were set is not recorded. Most values in the screen are low, and negative values occur.
Compounds were drawn at random from those tested, without regard to their results.
Two or more numbers in one place are separate tests of the same structure; such repeats can differ widely.

- [H][C@@]12C[C@@H](OC)C[C@]1([H])CN(C(=O)c1cc3ccc(F)cc3[nH]1)C2 | 19.86% and 16.59%
- CCN(CC)C(=O)c1cccc(Cn2nc(C)cc2C)c1 | 18.11%
- Cc1noc(C2CCN(C(=O)c3ccc(N(C)C)nc3)CC2)n1 | -6.204%
- Cc1cccc(CN2C(=O)CCC23CCN(C(=O)c2ccco2)CC3)n1.O=C(O)C(F)(F)F | 0.6441% and -4.051%
- CNS(=O)(=O)c1cccc(CNC(=O)c2c(C)oc(C)c2C)c1 | -10.25%
- CCOCC1CCCN(C(=O)NCc2ccc(-c3ccn[nH]3)cc2)C1 (centres undefined) | -11.22%
- c1ccc2nc(CN3CCCC3c3noc(C4CC4)n3)ccc2c1 (centres undefined) | -3.523%
- CC(=O)N1CCCC1c1ccnc(Nc2cncnc2)n1 (centres undefined) | -17.63%
- COCc1cc(N2CCOC(c3ccc(Cl)cc3)C2)ncn1 (centres undefined) | 23.95%
- COc1cccc(COCC(=O)NC(C(N)=O)c2ccccc2)c1 (centres undefined) | -17.55%
- O=C(Nc1cccc(CN2CCOC2=O)c1)N1CCCC1 | -0.1745%
- N#Cc1ccnc(N2CCC(NCCN3CCCC3)CC2)c1 | -7.644%
- O=C1N(CC2CC2)C(c2cncs2)NC12CCCC2 (centres undefined) | 15.11%
- [H][C@]12CCC[C@@]1(COCC1CCOCC1)CN(C(=O)c1ncccn1)C2 | -18.3%
- COc1ccc(C(=O)C2CCCN(Cc3cnn(C)c3C)C2)c(OC)c1 (centres undefined) | -5.918%
- COCCN1CC2(CCC1=O)CCN(Cc1nnc(C)o1)CC2 | 8.758%
- O=S(=O)(c1ccccc1)N1CCN(CCn2ccnc2)CC1 | -4.773%
- CCOc1ccccc1C(=O)N(C)C(C)c1ccc(S(C)(=O)=O)cc1 (centres undefined) | -8.507%
- COc1cc(C(=O)N2CC3(CCNCC3)c3cc(Cl)ccc32)ccn1.O=C(O)C(F)(F)F.O=C(O)C(F)(F)F | 3.614% and -3.138%
- CC(NC(=O)Nc1nccs1)c1ccc(S(C)(=O)=O)cc1 (centres undefined) | 1.982%
- O=S(=O)(c1ccccc1Cl)N1CCc2nc(C3CCNCC3)ncc2C1 | 1.364%
- COC(=O)C1CN(Cc2cc(F)ccc2Br)CCO1 (centres undefined) | 17.8%
- CN(C)CCN1CC2(CCCN(c3ccc(Cl)cn3)C2)CCC1=O (centres undefined) | -8.653%
- CCOC(=O)N1CCC(NC(C)Cc2cc(C)n[nH]2)CC1 (centres undefined) | 8.461%
- Clc1ccc(CNc2ccc(Cl)cn2)cc1 | -12.6%
- CC1CCc2nn(CCNC(=O)c3cccs3)c(=O)cc2C1 (centres undefined) | -34.09%
- O=C(O)C(F)(F)F.O=C(O)C(F)(F)F.[H][C@@]12CCN(Cc3cc(C)on3)C[C@@]1([H])O[C@@H](C(=O)Nc1cccnc1C)C2 | -26.45%
- Cc1cc(C)nc(N2CCC(Cn3cc(C(N)=O)cn3)CC2)n1 | -2.329% and -4.012%
- Cc1cccc(NC(=O)N(CCC(F)(F)F)C[C@H](O)CO)c1 | -0.3886%
- [H][C@@]12CN(C(C)=O)C[C@]1(C(=O)NC)CCC21CCN(S(=O)(=O)C2CC2)CC1 | -37.5%
- O=C(CCOc1ccccc1)N1CCCC(c2ncc[nH]2)C1 (centres undefined) | 14.97%
- Cc1noc(C2CCN(C(=O)CN(C)c3ccc(Cl)cn3)CC2)n1 | -11.02%
- O=C(C1CCOCC1)N(CCc1ccccc1)C1CCOC1 (centres undefined) | 9.018%
- CC(C)N1CCC(CNCc2c[nH]nc2C(C)(C)C)C1 (centres undefined) | 37.29%
- CN(C)[C@@H]1CN(Cc2ccccn2)C[C@H]1c1cn(C)c2ccccc12.Cl | 3.39% and -8.364%
- COc1ccnc(N2CCN(C(=O)c3csc(C)n3)CC2)n1 | -11.51%
- CCN1CC2(CCC1=O)CCN(Cc1cccc(C#N)c1)CC2 | 14.26%
- O=C(O)C(F)(F)F.[H][C@]12CCN(CCOC)[C@@]1([H])CC[C@H](COCC(=O)N1CCCC1)O2 | -2.154%
- Cc1cc(C(=O)O)c2c(Br)cccc2n1 | 11.62%
- CCOCCC(=O)N(C)c1ccc(F)c(Cl)c1 | -6.582%
- CC(CN1CCCC1=O)NC(=O)c1ccc(-c2ccco2)[nH]c1=O (centres undefined) | 4.81%
- CCc1nc2n(n1)CC(NCc1ccnc(-c3ccccc3)n1)CC2 (centres undefined) | 1.659%
- COCCN1CCC2(CC1)CC(NC(=O)CN(C)C)c1ccccc1O2.O=C(O)C(F)(F)F.O=C(O)C(F)(F)F (centres undefined) | -4.894%
- CCOCC(=O)Nc1ncc(I)cc1C | -6.963%
- COCc1cc(CNC(=O)c2cc(NC(C)=O)ccc2Cl)n[nH]1 | -24.34%
- Cc1nn(C)c(N(C)C)c1CNCCNS(C)(=O)=O | 11.96%
- [H][C@@]12CCCO[C@]1([H])[C@H](NC(=O)CC1CC1)CN(C(=O)c1ccsc1)C2 | 0.2966%
- C=C(C)Cn1nnc(C2(NC(=O)c3ccccc3)CCCC2)n1 | 3.213%

The last 4 entries again:

| SMILES | Percent Effect |
|---|---|
| `COCc1cc(CNC(=O)c2cc(NC(C)=O)ccc2Cl)n[nH]1` | -24.34 |
| `Cc1nn(C)c(N(C)C)c1CNCCNS(C)(=O)=O` | 11.96 |
| `[H][C@@]12CCCO[C@]1([H])[C@H](NC(=O)CC1CC1)CN(C(=O)c1ccsc1)C2` | 0.2966 |
| `C=C(C)Cn1nnc(C2(NC(=O)c3ccccc3)CCCC2)n1` | 3.213 |